# Assay results taken from PubChem BioAssay AID1347423 (Functional Genomics Laboratory (NCATS/FGL), 2020).
# Screen size: about 52,000 sequences; about 210 (0.4%) were called active.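 How the source made its calls: active means gene whose silencing raises cell survival under the drug, median off-target-corrected z-score across its silencing RNAs 2 or more; inactive means the rest.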 The list shows a part of the results.
# Assay: Resistance to Poly (ADP-Ribose) Polymerase inhibitor: Gene Identification via Genome-wide siRNA Screen
# Settings: mouse BRCA2 R2336H ES cells, olaparib, CellTiter-Glo viability; active compounds read high
# Procedure, shortened: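 Mouse BRCA2 R2336H ES cells were reverse-transfected with siRNA (20 nM final), treated at 48 h with 500 nM olaparib, and read by CellTiter-Glo after 72 h. Scores: MAD-based z per siRNA, median per gene, seed off-target correction.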
row,Sequence,z-score
1,GGCAGGACAAAACACCAAATT against C86302,inactive: -0.277
2,GGAUGUUUCGAAUUAAGAGTT against Uqcrb,inactive: 0.183
3,GGUGAAAUAGCUAAAUCAUTT against Usp15,active: -0.572
4,GGCCUUUAACAUCCGCCUATT against Ddb1,inactive: -0.944
5,CGCGCAUUGUGUUGCACUATT against 4930415J05Rik,inactive: -0.265
6,GGUGGCAUGUCAUUGCUUCTT against Igf2,inactive: 1.16
7,GCACUGUGAAUGCUAUACCTT against Suv420h2,inactive: 1.64
8,GGUUCUUUUCCUGUUUUACTT against Olfr434,inactive: -0.00597
9,GGAACAACUGAAAAUGAAGTT against 1110018J12Rik,inactive: -0.195
10,UCGCCUACGGACUGUUCGGTT against Kcnk12,inactive: 0.123
11,GCACUGCCCAACAACCAUUTT against Scamp4,inactive: -0.0209
12,GGAGAAAAUGAUAACAUGCTT against Mto1,inactive: -0.00142
13,GGAACAUGGUGUAAAUUCUTT against Serpinb9e,inactive: -0.0827
14,GGAUCAUAGAGCAUCUUGATT against BC010462,inactive: 0.679
15,GGUGUGAUUGAAGAAGCGGTT against Gpr37,inactive: -1.3
16,GGAAUUCUUUGGACUGAAUTT against Ccr5,inactive: -1.72
17,GCCACCAAAUUUAUGGUAUTT against 1700022N24Rik,inactive: -1.58
18,CGCUGCAUUAAAGACUAAATT against Kcnj10,inactive: -0.905
19,GCCAAGUAUUUUAAUGCAATT against 0610025O11Rik,inactive: 0.518
20,GGACUUUCGUGAGAGAUUUTT against Fpr-rs2,inactive: -0.874
21,GGGUUUUGUGUAAAAGGUUTT against Olfr584,active: 1.72
22,GGAGAAUCCCAGCAACUCUTT against Sall2,inactive: 0.904
23,GGACAUAAUCAAAGACAUCTT against Ddc,inactive: 0.399
24,CCUUCCAAGAUCAAUAAGATT against Epb4.2,inactive: 0.324
25,GGGUCUCAUACCUAAGGACTT against Wnt3a,inactive: 0.391
26,GGUGGUGACUAAGAAAUUCTT against Prps1,inactive: -0.221

# Laid out differently: results already given.
row	Sequence	z-score
1	GGCAGGACAAAACACCAAATT against C86302	inactive: -0.277
3	GGUGAAAUAGCUAAAUCAUTT against Usp15	active: -0.572
5	CGCGCAUUGUGUUGCACUATT against 4930415J05Rik	inactive: -0.265
6	GGUGGCAUGUCAUUGCUUCTT against Igf2	inactive: 1.16
13	GGAACAUGGUGUAAAUUCUTT against Serpinb9e	inactive: -0.0827
23	GGACAUAAUCAAAGACAUCTT against Ddc	inactive: 0.399

# More entries follow:

row,Sequence,z-score
1,GGAGCUUUGCUUAGCACUGTT against MGC67311,inactive: 1.73
2,GGAAGAAUUCACAAAGAUGTT against Snx6,inactive: -0.343
3,GGUUUCCUUUAUCAAGAAGTT against 3300001G02Rik,inactive: 1.44
4,GGUGCCCAUAAUAGCCAUCTT against Polr2c,inactive: -0.0259
5,GGCUUCAAAGGCAAAGUUCTT against Fbf1,inactive: -0.802
6,GCUUUUAAAGCAUGGGCAGTT against Alb1,inactive: 1.16
7,GGAUCUUCGUAGAAUGACATT against LOC434008,inactive: -1.14
8,GGCAUGAAAGGUGUCAUACTT against Zfp119,inactive: -0.64
9,CGACAAAUAUGAGAGACUCTT against Tsnax,inactive: -1
10,GGAUCUGAAGAACAAGAUCTT against Krt1-17,inactive: 1.26
11,GGUACUUUAGACAAGAGAGTT against BC017643,inactive: -0.0232
12,GGAUUUAGUUCAGAUUUGUTT against Ubp1,inactive: -0.523
13,GGAACUGAAAAACUCAACUTT against Evi2a,inactive: -1.38
14,CGAUCUUAACUCAUUCUUUTT against 9430056A22Rik,inactive: 1.47
15,GGAAUCUCAAGAGCUACAGTT against Ccl7,inactive: 0.211
16,GUAUAUUACCGUCGGAAUATT against 1810046I24Rik,inactive: 0.357
17,CCUCAGCUAAUGAAACUUCTT against 4932411L21Rik,inactive: 0.0399
18,GCCUCUAAGCUACACUACATT against Olfr1289,inactive: 1.9
19,GGAACCUACCUCACCUUUGTT against Fscn3,inactive: -1.15
20,GGUGGUGCUUUACGUCAAATT against Bzw2,inactive: -0.314
21,CCUACUUAGUGUCAGAAGATT against D6Mm5e,inactive: 1.2
22,GGACAUGGAGAUUAGAGUCTT against Tcl1b4,inactive: -0.528
23,CCUGGCCAUGUCGAAAGAUTT against Pla2g6,inactive: -1.71
24,GGUAAUGCAAACAUGCGGGTT against Lhfp,inactive: -0.556
25,GGGCUGGCAGAAUAGCAUCTT against Foxl2,inactive: -1.02
26,CCGAAAGAUCAGCACAUCCTT against Olfr24,inactive: 1.31

row,Sequence,z-score
1,GGUGUGUAAUGUGCGUGAGTT against Ephb3,inactive: 0.169
2,GGGAUGUUUAGGUCACCUUTT against 4933434M16Rik,inactive: -0.579
3,GGUGUCCUGGCUGUAUGCATT against Gfra4,inactive: 1.77
4,GGCCAGUUCUCGUUUGGAATT against Dr1,inactive: 0.741
5,CCAGUUUGUACCAUUAUAGTT against Scospondin,inactive: 1.47
6,CCCUAAGGCAUUAUUAUUCTT against Nkd1,inactive: 1.11
7,GGUGUGCCUAUGUUAUAGUTT against Slc13a5,inactive: 1.34
8,GGAAUUUGGUGACGACAAGTT against Ing4,inactive: 0.915
9,GCUUAUGAUGUAUUUCGUGTT against Ttpa,inactive: -1.16
10,GGCAAGCAAGCAUAUUAUCTT against D830013H23Rik,inactive: 0.358
11,GCUUGCUAGAUUGGUGUUGTT against Arhgap17,inactive: -0.419
12,GGAUUAGGAAUCACAGUAGTT against A130092J06Rik,inactive: -0.791
13,GGACAAGUUUGACUGUUACTT against BC022645,inactive: 0.613
14,GGGACCUUUCCUGACCUAUTT against 2700038C09Rik,inactive: 0.413
15,GCGUGUCACACUAUGAGUUTT against 4932416A11Rik,inactive: -1.37
16,GCCUAAGUUCAUUCUGAAATT against 3110023B02Rik,inactive: 0.877
17,GCCUGCCAACCAGCGUAAUTT against Pard6a,inactive: -1.13
18,CGAAGUGUUGGGAAGAUUATT against 4732406D01Rik,inactive: 1.41
19,GGAGAUGGUGCCAGAGAAGTT against Cfc1,inactive: -1.82
20,GGAAAAUCACAAUCACUUGTT against D11Ertd707e,inactive: -0.448
21,GGAUGACCGUGCUAGAAAUTT against Klra2,inactive: 1.01
22,GGCUACGUCGAUGUCUCAATT against BC025575,inactive: -1.74
23,GGACUCCCUUCUAGGUGAATT against Mcm7,inactive: -1.8
24,GGUCUAUCUACGCUGUGUUTT against Cd36,inactive: -0.81
25,GCUUGUCUAGAAACACCAUTT against Lrfn3,inactive: -0.0841
26,GUUCUUCUCAUCUUCCGCUTT against Olfr1506,inactive: -2.81

row,Sequence,z-score
1,GACCCAGAAAAAGGAGGGCTT against Hist1h2ba,inactive: 0.579
2,GGAAGAAGCCACCAUGUACTT against Pbx4,inactive: 0.01
3,CCACCUGUACACCUAGACUTT against Pex12,inactive: -1.36
4,GCUAAUCGGUAUUGAUGAUTT against Dab2,inactive: -0.153
5,GCAAGCUAAAGGUACAGAATT against Ncoa6,inactive: -1.02
6,GGAGGAGGAAGAAAUACCGTT against Gspt1,inactive: -0.517
7,GGAUAACCUUGAAUUUCUGTT against Il5,inactive: 0.497
8,GGGCAACUAUUGAUGAGGUTT against Centb5,inactive: -0.554
9,CCCACCUUCCAAAAGGAUCTT against 5031434C07Rik,inactive: -0.345
10,GGAUUUGGAAAAUUGAUGCTT against Ahi1,inactive: 0.401
11,CCUCCUCUAGGGUAGGUAGTT against A330068P14Rik,inactive: -0.983
12,GGAGAUGCUGUACAAGCAGTT against Zfp212,inactive: 3.07
13,GGCAACCAUCAAUCUAUUUTT against 5930422O12Rik,inactive: -1.96
14,GGAGCAAAUGAUCAAUAAATT against A030003A19Rik,inactive: 0.193
15,GCGCAGCACAGGUUUUGAATT against Tieg1,inactive: 0.0624
16,GCUAGUAUUCUAAGAUCUUTT against Fin15,inactive: 0.412
17,GGACAGAUUCCGCAUUGAGTT against Mospd3,inactive: -2.92
18,CGCAGUACCUAUUUGAGCGTT against Hs6st1,inactive: 0.199
19,CCUAUGUCUAACAGAUUUGTT against D330050I23Rik,inactive: -0.206
20,GGACCUGACCAGAAGAGCUTT against Pte2a,inactive: 0.152
21,GGUGUUUUAUACACUCUGUTT against 8430406I07Rik,inactive: -0.798
22,GCAAUGGGUGACAAUAGCATT against Vamp3,inactive: -0.955
23,GGCUCUAUGGAAGUUCUUATT against Kcnh8,inactive: 0.642
24,GGGUUUUUUUUUUCCUUCCTT against Hsd17b1,active: 1.88
25,GGGAUCACAGAUCUCUCUGTT against Magi1,inactive: -0.509
26,GCAAUUUAAGUUUAGGAGATT against B130016L12Rik,inactive: -0.491
